Results taken from US11414454B2, “Compositions, methods, and systems for affinity-based protein identification and purification” (Auctus Biologies, Inc., priority 2017, dated 2022).
Some entries share one result that the patent states for a list of compounds.

Tested on: RPtag (large)
Test: Fluorescence anisotropy Kd of rhodamine labeled RPtag (small) peptides for RPtag (large)
Assay type: binding, Thermoanaerobacter tengcongensis
Details: truncation versus native
Procedure: 50 nM of RP-Tag Small (see Sequence 3, below) with an N-terminal Rhodamine B label was incubated with increasing concentrations of either RP-Tag Large (see Sequence 2) or Bovine Serum Albumin (BSA) in 50 mM Tris pH 8.0, 150 mM NaCl, 10 mM 2-mercaptoethanol, and 0.005% Tween 20 for 5 min in black 96-well plates at room temperature.
Anisotropy was then measured, and a Kd calculated by fitting the data to the equation f=y0+(ymax−y0)*(Ptot+x+Kd−sqrt((Ptot+x+Kd)^2−4*Ptot*x))/(2*Ptot), where y0 is the baseline anisotropy, ymax is the maximum anisotropy, Ptot is the fixed concentration of labeled peptide used, x is the variable concentration of protein used, and Kd is the measured Kd.
The indicated concentrations of RPtag (large) and an anti-His tag antibody (4E3D10H2/E3 purchased from ThermoFisher Scientific) were incubated with 1 nM rhodamine labeled native RPtag (small) peptide and 6×His peptide (Rhodamine-GHHHHHH), respectively, and fluorescence anisotropy measured. BSA incubated with native rhodamine labeled RPtag(small) is included as a control for non-specific binding. Kd's were calculated according to the equation f=y0+(ymax−y0)*(Ptot+x+Kd−sqrt((Ptot+x+Kd)^2−4*Ptot*x))/(2*Ptot), where y0 is the baseline anisotropy, ymax is the maximum anisotropy, Ptot is the fixed concentration of labeled peptide used, x is the variable concentration of protein used, and Kd is the measured Kd. […]

Sequence: GEKIPNFIPAELKLIT [Cd5]
- impairment of Kd: ≥ 10 fold

Sequence: IPAELKLITKENVQ [Nd7]
- impairment of Kd: ≥ 10 fold
